Data source: PubChem BioAssay AID1671195 (Yale University, 2021)
Aim: 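Genes whose knockdown alters LDL uptake in liver cancer cells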 (primary screen). Cells: human Huh7 hepatoma cells. Reagents: siRNA pool against human genes, 18 nM. Timing: about 2 to 2.5 days of knockdown, then 8 h LDL uptake. Conditions: DiI-labelled LDL at 30 µg/ml for 8 h, in lipoprotein-deficient serum medium. Read-out: 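Fluorescent LDL signal imaged in cells, scaled to the plate median, robust z-score for each replicate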. Scale: robust z-score: higher = more LDL uptake after knockdown. Hit rule: 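a gene counts as active if at least two replicate z-scores exceed ±2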.
Shown is one part, drawn at random, of about 22,000 reagents. Of all reagents, about 1,510 (6.9%) got an active call. 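Active includes knockdowns raising or lowering LDL uptake; positive z-scores mean more uptake, negative mean less.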

SERINC2 (serine incorporator 2) | robust z-score, replicate 1 = -0.301; robust z-score, replicate 2 = 0.395; robust z-score, replicate 3 = 0.442; activity call = inactive
CCBE1 (collagen and calcium binding EGF domains 1) | robust z-score, replicate 1 = 2.13; robust z-score, replicate 2 = 2.05; robust z-score, replicate 3 = 2.81; activity call = active
INTS6L (integrator complex subunit 6 like) | robust z-score, replicate 1 = 0.0394; robust z-score, replicate 2 = -0.225; robust z-score, replicate 3 = -0.41; activity call = inactive
NTRK2 (neurotrophic receptor tyrosine kinase 2) | robust z-score, replicate 1 = -1.19; robust z-score, replicate 2 = -0.562; robust z-score, replicate 3 = -1.66; activity call = inactive

Next part; the last 2 above are carried over.
INTS6L (integrator complex subunit 6 like) | robust z-score, replicate 1 = 0.0394; robust z-score, replicate 2 = -0.225; robust z-score, replicate 3 = -0.41; activity call = inactive
NTRK2 (neurotrophic receptor tyrosine kinase 2) | robust z-score, replicate 1 = -1.19; robust z-score, replicate 2 = -0.562; robust z-score, replicate 3 = -1.66; activity call = inactive
SLC38A8 | robust z-score, replicate 1 = 0.229; robust z-score, replicate 2 = 0.25; robust z-score, replicate 3 = 0.274; activity call = inactive
FOXA3 (forkhead box A3) | robust z-score, replicate 1 = 0.817; robust z-score, replicate 2 = 1.02; robust z-score, replicate 3 = 0.47; activity call = inactive
DECR2 (2,4-dienoyl-CoA reductase 2) | robust z-score, replicate 1 = -0.541; robust z-score, replicate 2 = 0.249; robust z-score, replicate 3 = -0.58; activity call = inactive
ZNF792 (zinc finger protein 792) | robust z-score, replicate 1 = -0.947; robust z-score, replicate 2 = -0.0231; robust z-score, replicate 3 = -0.0391; activity call = inactive
TMED6 (transmembrane p24 trafficking protein 6) | robust z-score, replicate 1 = 0.419; robust z-score, replicate 2 = -0.619; robust z-score, replicate 3 = -0.775; activity call = inactive
ARHGAP45 (Rho GTPase activating protein 45) | robust z-score, replicate 1 = 0.644; robust z-score, replicate 2 = -1.46; robust z-score, replicate 3 = 0.728; activity call = inactive
ZCCHC3 (zinc finger CCHC-type containing 3) | robust z-score, replicate 1 = -0.904; robust z-score, replicate 2 = -0.405; robust z-score, replicate 3 = -0.738; activity call = inactive
LOC441803 (retired record) | robust z-score, replicate 1 = -0.681; robust z-score, replicate 2 = -0.0449; robust z-score, replicate 3 = 0.849; activity call = inactive
